± gives the standard deviation of the averaged measurements. Values are relative to the signal before dosing, not to a vehicle control; the signal also falls without drug.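 The tumor cells are basal-like or mesenchymal-like triple-negative breast cancer lines cultured without fibroblasts. Reduced red signal indicates lost mitochondrial integrity, serving as a proxy for apoptotic death.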
Legend:
[1] = tested on: HCC1143; test: relative JC-1 red fluorescence (viability) vs pre-drug, monoculture (fraction); higher = more viable cancer cells; conditions: coculture fibroblast: none (monoculture)
Experimental: (§1)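 JC-1 labelled TNBC cells grown in monoculture (density kept equal with unlabelled cancer cells) in 384-well plates in FluoroBrite medium, treated with one of 42 anticancer drugs at 0.1, 1, 10 or 100 uM. JC-1 red fluorescence (mitochondrial integrity, surrogate of apoptotic death) was read by plate reader every 8 h for 72 h. Values are normalised to each well's pre-drug value, with background from alamethicin. The stock of one drug was tenfold lower, so its dose labels may be too high. Monoculture values are repeated alongside each fibroblast plate and are averaged here.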

[2] = tested on: MDAMB436; test: as above; conditions: coculture fibroblast: none (monoculture)
Experimental: as §1

C#Cc1cccc(Nc2ncnc3cc(OCCOC)c(OCCOC)cc23)c1 [Erlotinib]
relative JC-1 red fluorescence
Conditions | 8 h | 16 h | 24 h | 32 h | 40 h | 48 h | 56 h | 64 h | 72 h
[1], 0.1 µM | 0.881 ± 0.0097 | 0.811 ± 0.01 | 0.743 ± 0.015 | 0.681 ± 0.0095 | 0.637 ± 0.021 | 0.611 ± 0.023 | 0.589 ± 0.034 | 0.571 ± 0.039 | 0.558 ± 0.045
[1], 1 µM | 0.882 ± 0.0018 | 0.803 ± 0.0089 | 0.763 ± 0.0022 | 0.717 ± 0.012 | 0.673 ± 0.025 | 0.637 ± 0.019 | 0.612 ± 0.02 | 0.602 ± 0.015 | 0.578 ± 0.016
[1], 10 µM | 0.9174 ± 0.0025 | 0.8685 ± 0.0012 | 0.8112 ± 0.0071 | 0.767 ± 0.02 | 0.714 ± 0.02 | 0.672 ± 0.018 | 0.645 ± 0.028 | 0.62 ± 0.025 | 0.604 ± 0.025
[1], 100 µM | 0.941 ± 0.043 | 0.915 ± 0.041 | 0.873 ± 0.046 | 0.831 ± 0.038 | 0.799 ± 0.029 | 0.773 ± 0.033 | 0.735 ± 0.031 | 0.726 ± 0.036 | 0.716 ± 0.03
[2], 0.1 µM | 0.856 ± 0.015 | 0.822 ± 0.029 | 0.774 ± 0.026 | 0.707 ± 0.033 | 0.692 ± 0.034 | 0.682 ± 0.043 | 0.675 ± 0.043 | 0.675 ± 0.045 | 0.68 ± 0.05
[2], 1 µM | 0.811 ± 0.0019 | 0.759 ± 0.016 | 0.751 ± 0.027 | 0.693 ± 0.03 | 0.667 ± 0.045 | 0.659 ± 0.056 | 0.642 ± 0.058 | 0.635 ± 0.063 | 0.625 ± 0.069
[2], 10 µM | 0.9006 ± 0.0017 | 0.851 ± 0.033 | 0.842 ± 0.025 | 0.8 ± 0.01 | 0.784 ± 0.017 | 0.762 ± 0.032 | 0.751 ± 0.04 | 0.752 ± 0.038 | 0.732 ± 0.03
[2], 100 µM | 0.819 ± 0.0073 | 0.872 ± 0.026 | 0.924 ± 0.044 | 0.901 ± 0.047 | 0.916 ± 0.059 | 0.785 ± 0.094 | 0.8726 ± 0.0062 | 0.876 ± 0.03 | 0.906 ± 0.015

CCCCCOC(=O)Nc1nc(=O)n([C@@H]2O[C@H](C)[C@@H](O)[C@H]2O)cc1F [Capecitabine]
relative JC-1 red fluorescence
Conditions | 8 h | 16 h | 24 h | 32 h | 40 h | 48 h | 56 h | 64 h | 72 h
[1], 0.1 µM | 0.892 ± 0.013 | 0.758 ± 0.011 | 0.66729 ± 0.00047 | 0.601 ± 0.016 | 0.538 ± 0.021 | 0.49 ± 0.032 | 0.449 ± 0.032 | 0.43 ± 0.035 | 0.409 ± 0.036
[1], 1 µM | 0.8741 ± 0.006 | 0.802 ± 0.018 | 0.733 ± 0.024 | 0.669 ± 0.034 | 0.626 ± 0.036 | 0.581 ± 0.037 | 0.56 ± 0.049 | 0.536 ± 0.051 | 0.522 ± 0.059
[1], 10 µM | 0.912 ± 0.015 | 0.822 ± 0.039 | 0.746 ± 0.036 | 0.682 ± 0.031 | 0.626 ± 0.036 | 0.578 ± 0.04 | 0.544 ± 0.042 | 0.515 ± 0.047 | 0.489 ± 0.046
[1], 100 µM | 0.948 ± 0.051 | 0.768 ± 0.057 | 0.839 ± 0.1 | 0.837 ± 0.15 | 0.805 ± 0.16 | 0.767 ± 0.16 | 0.741 ± 0.16 | 0.717 ± 0.16 | 0.685 ± 0.16
[2], 0.1 µM | 0.843 ± 0.011 | 0.701 ± 0.009 | 0.7134 ± 0.0061 | 0.6542 ± 0.0019 | 0.6362 ± 0.0049 | 0.62591 ± 0.00012 | 0.6262 ± 0.0027 | 0.6223 ± 0.0027 | 0.6275 ± 0.0041
[2], 1 µM | 0.8802 ± 0.0026 | 0.867 ± 0.019 | 0.834 ± 0.017 | 0.807 ± 0.032 | 0.809 ± 0.029 | 0.817 ± 0.034 | 0.824 ± 0.039 | 0.828 ± 0.045 | 0.839 ± 0.053
[2], 10 µM | 0.8767 ± 0.004 | 0.801 ± 0.04 | 0.777 ± 0.035 | 0.731 ± 0.048 | 0.722 ± 0.057 | 0.707 ± 0.071 | 0.704 ± 0.075 | 0.704 ± 0.082 | 0.701 ± 0.086
[2], 100 µM | 0.89 ± 0.0097 | 0.8103 ± 0.0052 | 0.785 ± 0.01 | 0.731 ± 0.013 | 0.712 ± 0.021 | 0.698 ± 0.018 | 0.688 ± 0.021 | 0.681 ± 0.019 | 0.678 ± 0.023

N.N.[Cl][Pt][Cl] [Cisplatin]
relative JC-1 red fluorescence
Conditions | 8 h | 16 h | 24 h | 32 h | 40 h | 48 h | 56 h | 64 h | 72 h
[1], 0.1 µM | 0.861 ± 0.011 | 0.769 ± 0.013 | 0.708 ± 0.028 | 0.648 ± 0.043 | 0.606 ± 0.054 | 0.578 ± 0.065 | 0.562 ± 0.074 | 0.544 ± 0.081 | 0.531 ± 0.088
[1], 1 µM | 0.854 ± 0.028 | 0.759 ± 0.0024 | 0.6969 ± 0.0037 | 0.6483 ± 0.0053 | 0.6048 ± 0.0049 | 0.578 ± 0.014 | 0.559 ± 0.023 | 0.547 ± 0.031 | 0.533 ± 0.032
[1], 10 µM | 0.862 ± 0.022 | 0.775 ± 0.017 | 0.717 ± 0.029 | 0.664 ± 0.029 | 0.629 ± 0.03 | 0.593 ± 0.028 | 0.57 ± 0.034 | 0.561 ± 0.027 | 0.554 ± 0.022
[1], 100 µM | 0.746 ± 0.026 | 0.57 ± 0.0063 | 0.4919 ± 0.0021 | 0.4189 ± 0.0035 | 0.383 ± 0.0039 | 0.359 ± 0.012 | 0.344 ± 0.015 | 0.329 ± 0.017 | 0.323 ± 0.013
[2], 0.1 µM | 0.872 ± 0.022 | 0.82 ± 0.063 | 0.87 ± 0.063 | 0.842 ± 0.061 | 0.859 ± 0.064 | 0.879 ± 0.077 | 0.897 ± 0.08 | 0.855 ± 0.02 | 0.848 ± 0.011
[2], 1 µM | 0.7757 ± 0.004 | 0.773 ± 0.064 | 0.795 ± 0.088 | 0.762 ± 0.11 | 0.773 ± 0.12 | 0.799 ± 0.15 | 0.816 ± 0.16 | 0.688 ± 0.027 | 0.768 ± 0.09
[2], 10 µM | 0.849 ± 0.049 | 0.882 ± 0.026 | 0.837 ± 0.085 | 0.832 ± 0.037 | 0.81 ± 0.053 | 0.871 ± 0.015 | 0.876 ± 0.024 | 0.8611 ± 0.0041 | 0.885 ± 0.025
[2], 100 µM | 0.823 ± 0.02 | 0.782 ± 0.03 | 0.782 ± 0.03 | 0.734 ± 0.027 | 0.72 ± 0.026 | 0.72 ± 0.03 | 0.718 ± 0.036 | 0.726 ± 0.041 | 0.734 ± 0.045

C[C@]12CC[C@@H]3c4ccc(O)cc4C[C@@H](CCCCCCCCC[S+]([O-])CCCC(F)(F)C(F)(F)F)[C@H]3[C@@H]1CC[C@@H]2O (stereo partly drawn) [Fulvestrant]
relative JC-1 red fluorescence
Conditions | 8 h | 16 h | 24 h | 32 h | 40 h | 48 h | 56 h | 64 h | 72 h
[1], 0.1 µM | 0.8912 ± 0.0054 | 0.8141 ± 0.0066 | 0.758 ± 0.015 | 0.7118 ± 0.00096 | 0.6702 ± 0.0018 | 0.65 ± 0.0097 | 0.6282 ± 0.0051 | 0.622 ± 0.011 | 0.615 ± 0.013
[1], 1 µM | 0.901 ± 0.031 | 0.806 ± 0.022 | 0.758 ± 0.023 | 0.712 ± 0.015 | 0.666 ± 0.0074 | 0.634 ± 0.013 | 0.607 ± 0.0062 | 0.588 ± 0.01 | 0.563 ± 0.01
[1], 10 µM | 0.955 ± 0.0099 | 0.935 ± 0.02 | 0.905 ± 0.022 | 0.876 ± 0.03 | 0.862 ± 0.046 | 0.835 ± 0.064 | 0.835 ± 0.057 | 0.831 ± 0.072 | 0.833 ± 0.081
[1], 100 µM | 0.9798 ± 0.00058 | 0.915 ± 0.055 | 0.965 ± 0.01 | 0.9312 ± 0.0014 | 0.909 ± 0.0078 | 0.875 ± 0.016 | 0.866 ± 0.024 | 0.885 ± 0.02 | 0.888 ± 0.017
[2], 0.1 µM | 0.85 ± 0.0049 | 0.749 ± 0.019 | 0.723 ± 0.022 | 0.644 ± 0.022 | 0.634 ± 0.037 | 0.611 ± 0.036 | 0.596 ± 0.043 | 0.589 ± 0.044 | 0.585 ± 0.044
[2], 1 µM | 0.869 ± 0.012 | 0.7805 ± 0.0074 | 0.78532 ± 0.00059 | 0.7387 ± 0.0066 | 0.737 ± 0.015 | 0.733 ± 0.015 | 0.721 ± 0.026 | 0.713 ± 0.025 | 0.716 ± 0.029
[2], 10 µM | 0.9658 ± 0.0035 | 0.9309 ± 0.0093 | 0.924 ± 0.012 | 0.868 ± 0.0078 | 0.86 ± 0.0066 | 0.854 ± 0.014 | 0.83 ± 0.011 | 0.817 ± 0.0094 | 0.798 ± 0.012
[2], 100 µM | 0.844 ± 0.02 | 0.87 ± 0.04 | 0.8037 ± 0.0067 | 0.917 ± 0.08 | 0.876 ± 0.11 | 0.833 ± 0.14 | 0.911 ± 0.057 | 0.891 ± 0.071 | 0.883 ± 0.085
